Test results: PubChem BioAssay AID720504 (National Center for Advancing Translational Sciences (NCATS), 2013)
Out of some 360,000 compounds screened, about 10,000 (2.8%) were called active. The shares of active, inactive and inconclusive entries below differ from those in the screen. Calls come from the whole dose curve; as a rule, active = well fitted inhibition curve with a large enough effect; inconclusive = small, poorly fitted or top-dose-only effect; inactive = flat fitted curve, though single readings scatter. Where the call is inconclusive, the potency comes from a doubtful curve fit.
% is set by controls: 0 for no effect and ±100 for the full control effect; potency is the fitted concentration of half-maximal effect.
Note: nearly all actives have a fitted effect of over 65% in size.
Throughout, for max response, negative = inhibition: series mostly up to about 57 µM.

By UniProt entry, the sequences of proteins in these tests, tags left out.
UniProt P53350, whole entry, looked up: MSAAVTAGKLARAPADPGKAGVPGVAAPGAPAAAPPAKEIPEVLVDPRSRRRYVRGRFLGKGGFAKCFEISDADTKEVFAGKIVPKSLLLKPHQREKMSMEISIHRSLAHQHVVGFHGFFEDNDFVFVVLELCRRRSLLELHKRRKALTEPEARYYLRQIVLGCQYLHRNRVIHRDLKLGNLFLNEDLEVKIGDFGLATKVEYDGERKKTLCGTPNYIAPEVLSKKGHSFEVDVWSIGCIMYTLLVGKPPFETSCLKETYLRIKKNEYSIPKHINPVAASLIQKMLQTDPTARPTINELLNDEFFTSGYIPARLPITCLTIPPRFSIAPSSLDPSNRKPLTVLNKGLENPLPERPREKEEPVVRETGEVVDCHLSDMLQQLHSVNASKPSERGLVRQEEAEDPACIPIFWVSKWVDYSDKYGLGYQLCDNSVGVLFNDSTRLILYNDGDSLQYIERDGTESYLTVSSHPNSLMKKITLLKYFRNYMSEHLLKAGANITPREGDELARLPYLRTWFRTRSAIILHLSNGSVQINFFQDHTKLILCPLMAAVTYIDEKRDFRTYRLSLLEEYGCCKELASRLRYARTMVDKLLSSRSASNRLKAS

These compounds were tested against Serine/threonine-protein kinase PLK1 (Homo sapiens) (UniProt P53350) (assay: qHTS for Inhibitors of PLK1-PDB (polo-like kinase 1 - polo-box domain): Primary Screen). Details: Plk1 PBD binding of FITC phosphopeptide, fluorescence polarization.
In the case of `COc1ccc(Br)c2oc(S)cc(=O)c12`, the Potency is reported as inconclusive: 13.4 µM [inhibitor, partial curve].
For `Cc1cccc(OCC(=O)Nc2ccc(C(=O)Nc3ccccc3C(=O)O)cc2)c1C`, the Potency was inconclusive: 26.7 µM [inhibitor, partial curve].
In the case of `N#C/C(=C(/O)c1cc2ccccc2o1)c1nc2ccccc2s1`, the Potency is reported as inconclusive: 18.9 µM [inhibitor, partial curve].
`COc1ccc(C(=O)C[C@@H]2OC[C@H](Cc3ccccc3)N2S(=O)(=O)c2ccc(C)cc2)cc1OC` was tested, and the max response, negative = inhibition was inactive: 2.07%.
In the case of `CCOc1ccc(CC(=O)NNC(=S)Nc2ccccc2)cc1Br`, the Potency is reported as inconclusive: 29.9 µM [inhibitor, partial curve].
`O=C(c1coc(=O)c(Br)c1)N1CCOCC1` was tested, and the Potency was inconclusive: 23.8 µM [inhibitor, single point].
In the case of `CCN(CC)S(=O)(=O)c1cccc(C(=O)N/N=C/c2ccc(O)c(O)c2O)c1`, the Potency is reported as active: 8.44 µM.
For `Cc1nnc(SCC(=O)OC2CC(C)CCC2C(C)C)[nH]c1=O` (stereo not given), the max response, negative = inhibition was inactive: 2.97%.
With `Cc1c(C(=O)O)[nH]c2ccc([N+](=O)[O-])cc12` the Potency was inconclusive: 18.9 µM [inhibitor, single point].
For `Cc1ccc(C)c(-n2cc(CN3CCNC(=O)CC3)c(-c3ccccc3)n2)c1`, the max response, negative = inhibition was inactive: -12.6%.
`COc1ccc2c(c1)c(C(=O)N1CCN(C)CC1)c(C)n2-c1ccccc1` was tested, and the max response, negative = inhibition was inactive: -1.3%.
`Nc1nc(Cl)cc(Oc2ccc([N+](=O)[O-])cc2)n1` was tested, and the Potency was inconclusive: 21.2 µM [inhibitor, partial curve].
In the case of `Cc1sc2nc(CSC(C)C(=O)Nc3cc(S(C)(=O)=O)ccc3Cl)[nH]c(=O)c2c1C` (stereo not given), the Potency is reported as inconclusive: 21.2 µM [inhibitor, partial curve].
`CN(C(=O)CSc1ccc2c(c1)OCCO2)c1ccccc1` was tested, and the Potency was inconclusive: 29.9 µM [inhibitor, partial curve].
For `S=C(NCc1ccccc1)C(=S)NCc1ccccc1`, the Potency was inconclusive: 23.8 µM [inhibitor, partial curve].
With `C[C@H]1CN([C@@H](C)CO)C(=O)c2cccc(NC(=O)C3CC3)c2O[C@H]1CN(C)S(=O)(=O)c1cccs1` the max response, negative = inhibition was inactive: -18%.
In the case of `COC(=O)c1c(NS(C)(=O)=O)sc2c1CCCC2`, the Potency is reported as inconclusive: 29.9 µM [inhibitor, partial curve].
With `CC1=CC(C)(C)NC(=S)N1c1cccc(Cl)c1` the max response, negative = inhibition was inactive: -4.84%.
With `COc1cc([N+](=O)[O-])ccc1NC(=O)C[n+]1cccc(C(C)=O)c1` the Potency was inconclusive: 29.9 µM [inhibitor, single point].
With `CC(C)OCCCNC(=O)CN1C(=O)/C(=C/c2ccccc2F)Oc2ccccc21` the Potency was active: 26.7 µM.
With `COC(=O)c1sc(NC(=O)CC(C)C)c(C(=O)OC)c1C` the max response, negative = inhibition was inactive: 1.86%.
`CCC1=Nc2cc(C(=O)NCCCN3CCOCC3)ccc2Sc2ccc(Br)cc21` was tested, and the max response, negative = inhibition was inconclusive: -1.03% [inhibitor].
With `CCOC(=O)N1CCC(NC(=O)C2CCN(C(=O)N3CCOc4ccccc43)CC2)CC1` the Potency was inconclusive: 21.2 µM [inhibitor, single point].
With `Cc1cc(C)c2sc(NNC(=O)c3ccc(S(=O)(=O)N4CCc5ccccc5C4)cc3)nc2c1` the max response, negative = inhibition was inactive: -10.7%.
`C(=C\c1nc(N2CCCCCC2)c2ccccc2n1)/c1ccccc1` was tested, and the max response, negative = inhibition was inactive: -6.23%.
For `COc1ccc(-c2ccc(CCC(=O)O)n2-c2ccccc2OC)cc1`, the max response, negative = inhibition was inactive: 0.378%.
`Cc1cccc(OCC(=O)N2CCN(C(=O)c3ccco3)CC2)c1` was tested, and the Potency was active: 37.7 µM.
For `COc1ccc(/C=N\NC(=O)c2cc(O)c(O)c(O)c2)cc1CN1CCN(c2ccc(F)cc2)CC1`, the Potency was inconclusive: 29.9 µM [inhibitor, single point].
`COc1ccc(C(=O)NC(=S)Nc2cccc3nc(C)ccc23)cc1OC` was tested, and the max response, negative = inhibition was inactive: -16%.
For `CC(C)c1cccc(-c2ccc3c(c2)S(=O)(=O)c2cccc(C(=O)NCc4ccco4)c2C3=O)c1`, the Potency was active: 42.3 µM.
`CCSc1ccc(-c2cc(NC=O)c3ncc(-c4cccc(C(=O)N(C)C)c4)n3c2)cc1` was tested, and the Potency was inconclusive: 26.7 µM [inhibitor, partial curve].
With `CCN(CC)S(=O)(=O)c1ccc(C(=O)NC(=S)N2CCCCC2C)cc1` (stereo not given) the Potency was inconclusive: 29.9 µM [inhibitor, partial curve].
`COc1ccccc1NC(=O)C(O)C(O)C(=O)Nc1ccccc1OC` (stereo not given) was tested, and the Potency was inconclusive: 29.9 µM [inhibitor, single point].
For `COC(=O)c1c(NS(=O)(=O)c2ccc(C)cc2)sc2c1CCC(C)C2` (stereo not given), the Potency was inconclusive: 20 µM [inhibitor, single point].
For `O=C(O)CN1C(=O)C2C3CCC(C3)C2C1=O` (stereo not given), the max response, negative = inhibition was inactive: 0.633%.
For `CCCCC1=CC2=CC(=O)C(C)(OC(=O)CC)C(=O)C2=CO1` (stereo not given), the Potency was inconclusive: 21.2 µM [inhibitor, partial curve].
`Cc1ccc(-c2nc3ccccc3o2)cc1NC(=S)NC(=O)c1cc2ccccc2o1` was tested, and the max response, negative = inhibition was inactive: -6.48%.
For `COc1cc(C2c3cc4c(cc3C(OC3OC5COC(c6cccs6)OC5C(O)C3O)C3COC(=O)C23)OCO4)cc(OC)c1O` (stereo not given), the max response, negative = inhibition was inconclusive: -30.7% [inhibitor].
In the case of `CSc1nnc(NC(=O)c2nc(S(=O)(=O)Cc3ccccc3)ncc2Cl)s1`, the Potency is reported as active: 29.9 µM.
`CCOC(=O)c1c(-c2ccc(F)cc2)csc1NC(=O)C1CCCO1` (stereo not given) was tested, and the Potency was active: 26.7 µM.
`Cc1sc2ncnc(Nc3ccc(O)cc3)c2c1C` was tested, and the max response, negative = inhibition was inconclusive: -30.2% [inhibitor].
`COc1ccc(C(C#N)=C2C=C(Cl)C(=NO)C=C2Cl)cc1` was tested, and the Potency was active: 21.2 µM.
`O=S(=O)(Cc1ccc(Cl)cc1)N1CCN(Cc2ccccc2)CC1` was tested, and the max response, negative = inhibition was inactive: -0.585%.
With `COc1ccc(/C=C2/SC(=S)N(c3ccc(S(=O)(=O)Nc4nccs4)cc3)C2=O)cc1` the Potency was inconclusive: 15 µM [inhibitor, partial curve].
`O=Cc1sc([O-])nc1-[n+]1ccc2ccccc2c1` was tested, and the Potency was inconclusive: 29.9 µM [inhibitor, partial curve].
